In US20230174670A1 (JIANGSU HENGRUI PHARMACEUTICALS, published 2023):
Changes are numbered by the printed parent chain. These are yes or no findings as the source states them, for the method shown. Some results given as binding are weak or reduced against the parent protein; the word gives no strength.

Chains of the proteins cited; added tags and fusions are not shown. Lines headed by an entry give the natural chain unless they say otherwise; changes in a name come on top. A line that says so, or that is headed by a name, gives the form on record, which may keep a tag or linker.
recombinant monkey CD25-His protein (monkey (cynomolgus)) (H6WS54, form named): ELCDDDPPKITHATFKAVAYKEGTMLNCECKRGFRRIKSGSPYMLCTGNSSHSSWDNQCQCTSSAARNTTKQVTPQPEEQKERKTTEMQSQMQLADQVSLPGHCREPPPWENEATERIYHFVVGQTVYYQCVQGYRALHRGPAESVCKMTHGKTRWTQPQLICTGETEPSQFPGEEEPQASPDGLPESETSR

B1: cAb006 (antibody, human IgG1, V domains shown)
VH: QIQLQQSGAELMKPGASVKLSCKATGYTFTGHWIEWVKQRPGHGLEWVGEILPGSNKINYNEKFKGKATFTAETSSNTVYMQLSSLTTEDSAIYYCAGGGGPHWPFAFWGQGSLVTVSA
VL: DIVLTQSPASLTVSLGQRATISCRASESVNVHGAHLMHWYQQKPGQPPKLLIYAASILESGVPARFSGSGSETDFTLNIHPVEEEDAATYFCQQTIEDPRTFGGGTKLEIK
notes: also called mAb006/cAb006
B2: cAb042 (antibody, human IgG1, V domains shown)
VH: QVQLQQSGPELVKSGASVKLSCKASGYTFTTYDINWMKQRPGQGLEWIGWIYPRDGSTKYNAKFKGKATLTEDTSSNTAFMELHSLTSEDSAVYFCARERIYDGSFDYWGQGTTLTVSS
VL: DIVMTQSPSSLSVSAGEKVSMRCKSSQRLFNSRDQKNYLAWYQQKPGQPPKLLIYGASTRESGVPDRFTGSGSGTDFTLTISSVQAEDLAVYYCQNDHIYPLTFGAGTKLELK
notes: also called mAb042/cAb042
B3: cAb046 (antibody, human IgG1, V domains shown)
VH: EVQLVESGGGLVKPGGSLKLSCAASGFTFSSYAMSWVRQTPEKRLEWVATISEGGSYTYYPDNVKGRFTISRDNARNNLYLQMSHLKSEDTAMYLCVRDNPWFAYWGQGTLVTVST
VL: DVLMTQTPLSLPVSLGDRASISCRSSQNIVHSNGNTYLEWFLQKPGQSPKLLIYKVSKRFSGVPDRFSGSGSGTDFTLKISRVEAEDLGVYYCFQGSHVPYTFGGGTKLEIK
notes: also called mAb046/cAb046
B4: cAb037 (antibody, human IgG1, V domains shown)
VH: QVRLQQSGPELVKPGASVQMSCKASGYTFTDYYINWVKQRPGQGLEWIAWIFPGNGNTYFNENFKDKATLSVDKFSSTAFMLLSSLTSEDSAVYFCARATYDHGGYWYFDVWGTGTTVTVSS
VL: QIVLSQSPAILSASPGEKVTMTCRASSSVSHIHWYQQKPGSSPKPWIYATSNLASGVPGRFSGSGSGTSYSLTVSRVEAEDAATYYCQHWNSFTFGGGTELELK
notes: also called mAb037/cAb037
B5: cAb001 (antibody, V domains shown)
VH: QVTLKESGPGILQPSQTLSLTCSFSGFSLNTFGMGVGWIRQPSGKGLEWLAHIWWDDDKYYNPALKSRLTISKDTSKNQVFLKIANVDTADTVTYYCARITTEVGNYDVWGMGTTVTVSS
VL: EIVLTQSPALMAASPGEKVTITCSVSSGITSNNLHWYQQKSETSPKPWIYGTSNLASGVPIRFSGSGSGTSYSLTISSMEAEDAATYYCQQWSSYPFTFGSGTKLEIK
notes: also called mAb001/cAb001
B6: cAb029 (antibody, human IgG1, V domains shown)
VH: QVTLKESGPGILQPSQTLSLTCSFSGFSLSTFGMGVGWIRQPSGKGLEWLAHIWWDDDEYYNPALKSRLTISKDTSKNQVFLKIANVDTADTATYYCTRIMLTTGYFDVWGTGTTVTVSS
VL: B5 VL with S24T, N32S, I61V, K104R
notes: also called mAb029/cAb029
B7: cAb002 (antibody, human IgG1, V domains shown)
VH: QVTLKESGPGILQPSQTLSLTCSFSGFSLSTFGLGVGWIRQPSGKGLEWLAQIWWDDDEYYNPALKSRLTISKDTSRNQVFLKIANVDTGDTATYFCARMGDTYWYFDVWGTGTTVAVSS
VL: B5 VL with L4V, A13V, V25L, N32S, I61V, G69K
notes: also called mAb002/cAb002

What follows are binders tested against recombinant monkey CD25-His protein (monkey (cynomolgus)) (UniProt H6WS54) (assay: ELISA, plate coated with monkey CD25-His).

| binding | Binder |
| --- | --- |
| binds | B1 |
| binds | B2 |
| binds | B3 |
| binds | B4 |
| binds | B5 |
| binds | B6 |
| binds | B7 |
